We go through six molecules from paper doi:10.1101/2025.03.06.641895.

This assay deals with T1, Ataxin-2-like (ATXN2L) (mouse (endogenous in MEF)) (UniProt Q7TQH0).
T1 sequence: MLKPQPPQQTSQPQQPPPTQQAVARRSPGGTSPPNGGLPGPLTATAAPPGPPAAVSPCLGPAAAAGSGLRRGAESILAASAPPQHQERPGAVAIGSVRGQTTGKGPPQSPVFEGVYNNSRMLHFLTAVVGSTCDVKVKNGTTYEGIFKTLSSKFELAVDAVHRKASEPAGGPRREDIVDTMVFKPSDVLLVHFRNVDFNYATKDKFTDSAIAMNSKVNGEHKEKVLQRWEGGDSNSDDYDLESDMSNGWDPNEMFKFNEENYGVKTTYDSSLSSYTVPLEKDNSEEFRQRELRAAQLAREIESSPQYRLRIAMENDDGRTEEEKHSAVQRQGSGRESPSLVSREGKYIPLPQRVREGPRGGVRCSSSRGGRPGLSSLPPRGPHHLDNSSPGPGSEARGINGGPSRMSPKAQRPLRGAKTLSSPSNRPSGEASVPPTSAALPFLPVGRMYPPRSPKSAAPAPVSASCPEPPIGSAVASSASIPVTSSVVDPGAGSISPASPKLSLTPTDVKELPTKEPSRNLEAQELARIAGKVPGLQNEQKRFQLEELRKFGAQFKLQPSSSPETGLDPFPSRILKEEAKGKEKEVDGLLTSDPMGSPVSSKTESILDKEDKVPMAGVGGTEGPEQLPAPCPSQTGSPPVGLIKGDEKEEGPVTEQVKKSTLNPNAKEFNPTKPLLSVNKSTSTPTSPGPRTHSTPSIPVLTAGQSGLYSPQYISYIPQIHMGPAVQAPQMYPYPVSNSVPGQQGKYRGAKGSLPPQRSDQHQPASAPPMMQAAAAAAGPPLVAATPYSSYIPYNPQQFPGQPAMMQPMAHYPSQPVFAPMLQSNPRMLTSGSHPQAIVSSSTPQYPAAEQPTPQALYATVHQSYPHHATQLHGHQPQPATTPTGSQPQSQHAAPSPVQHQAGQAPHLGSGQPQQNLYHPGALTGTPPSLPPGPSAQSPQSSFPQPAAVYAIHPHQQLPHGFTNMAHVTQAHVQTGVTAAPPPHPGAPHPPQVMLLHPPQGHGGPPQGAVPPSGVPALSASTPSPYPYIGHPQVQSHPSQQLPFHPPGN
In words: affinity purification with mass spectrometry.

Results are given in words; binding and its absence hold for the method and conditions named. In cells and extracts the contact can be indirect. A yes stands for co-enrichment or nearness to the bait. Other partners may have been found.

B1: PRDX1 (Peroxiredoxin 1) (protein, UniProt P35700 1-199)
chain: MSSGNAKIGYPAPNFKATAVMPDGQFKDISLSEYKGKYVVFFFYPLDFTFVCPTEIIAFSDRADEFKKLNCQVIGASVDSHFCHLAWINTPKKQGGLGPMNIPLISDPKRTIAQDYGVLKADEGISFRGLFIIDDKGILRQITINDLPVGRSVDEIIRLVQAFQFTDKHGEVCPAGWKPGSDTIKPDVNKSKEYFSKQK
B1: the binding result is recorded as “binds”.

B2: RBMS1 (protein, UniProt Q91W59 1-403)
chain: MGKVWKQQMYPQYATYYYPQYLQAKQSLVPAHPMAPPSPSTTSSNNNSSSSSNSGWDQLSKTNLYIRGLPPNTTDQDLVKLCQPYGKIVSTKAILDKATNKCKGYGFVDFDSPAAAQKAVSALKANGVQAQMAKQQEQDPTNLYISNLPLSMDEQELENMLKPFGQVISTRVLRDSSGASRGVGFARMESTEKCEAVIGHFNGKFIKTPPGVSAPTEPLLCKFADGGQKKRQNPNKYIPNGRPWPRDGEAGMTLTYDPTTAALHNGFYPSPYSIATNRMITQTSLTPYIASPVSAYQVQSPSWMQPQPYILQHPGAVLTPSMEHTMSLQPASMISPLAQQMSHLSLGSTGTYMPATSAMQGAYLPQYTHMQTAAVPVEEASGQQQVAVETSNDHSPYTFPPNK
Take B2: the binding entry is reported as “binds”.

B3: MCRIP2 (protein, UniProt Q9CQB2 1-160)
chain: MYTITKGPSKLVAQRRTGPTQQQVESRLGELLKCRQPVPPTALPAHLQPSAQTQGPWPLASSGPRLVFNRVNGRRPLTTSPSLEGTQETYTVAHEENVRFVSEAWQQVERQLDGGPADESGPRPVQYVESTPDPRLQNFVPIDLDEWWAQQFLAKITNCS
On to B3, for which the binding result is reported as “binds”.

B4: GOLGA3 (protein, UniProt P55937 1-1487)
chain: MDGASAKQDGLWESKSSSDVSSCPEASLETVGSLARLPDQQDTAQDASVEVNRGFKEEGSPDRSSQVAICQNGQIPDLQLSLDPTTSPVGPDASTGVDGFHDNLRNSQGTSAEGSVRKEALQSLRLSLPMQETQLCSTASSLPLEKEEQVRLQARKRLEEQLMQYRVKRHRERSSQPATKMKLFSTLDPELMLNPENLPRASTVAVTKEYSFLRTSVPRGPKVGSLGLLAHSKEKKNSKSSKIRSLADYRTEDPSDSGGLGSTADAVGSSLKQSRSSTSVVSEVSPSSETDNRVESASMTGDSVSEADGNESDSSSHSSLSARGACGVLGNVGMPGTAYMVDGQEISAEALGQFPSIKDVLQAAAAQHQDQNQEANGEVRSRRDSICSSVSMESSLAEPQDELLQILKDKRRLEGQVEALSLEASQALQEKAELQAQLAALSTRLQAQVEHSHSSQQKQDSLSSEVDTLKQSCWDLGRAMTDLQSMLEAKNASLASSNNDLQVAEEQYQRLMAKVEDMQRNILSKDNTVHDLRQQMTALQSQLQQVQLERTTLTSKLQASQAEITSLQHARQWYQQQLTLAQEARVRLQGEMAHIQVGQMTQAGLLEHLKLENVSLSHQLTETQHRSIKEKERIAVQLQSIEADMLDQEAAFVQIREAKTMVEEDLQRRLEEFEGEREQLQKVADAAASLEQQLEQVKLTLFQRDQQLAALQQEHLDVIKQLTSTQEALQAKGQSLDDLHTRYDELQARLEELQREADSREDAIHFLQNEKIVLEVALQSAKSDKEELDRGARRLEEDTEETSGLLEQLRQDLAVKSNQVEHLQQETATLRKQMQKVKEQFVQQKVMVEAYRRDATSKDQLINELKATKKRLDSEMKELRQELIKLQGEKKTVEVEHSRLQKDMSLVHQQMAELEGHLQSVQKERDEMEIHLQSLKFDKEQMIALTEANETLKKQIEELQQEAKKAITEQKQKMKRLGSDLTSAQKEMKTKHKAYENAVSILSRRLQEALASKEATDAELNQLRAQSTGGSSDPVLHEKIRALEVELQNVGQSKILLEKELQEVITMTSQELEESREKVLELEDELQESRGFRRKIKRLEESNKKLALELEHERGKLTGLGQSNAALREHNSILETALAKREADLVQLNLQVQAVLQRKEEEDRQMKQLVQALQVSLEKEKMEVNSLKEQMAAARIEAGHNRRHFKAATLELSEVKKELQAKEHLVQTLQAEVDELQIQDGKHSQEIAQFQTELAEARTQLQLLQKKLDEQMSQQPTGSQEMEDLKWELDQKEREIQSLKQQLDLTEQQGKKELEGTQQTLQTIKSELEMVQEDLSETQKDKFMLQAKVSELKNNMKTLLQQNQQLKLDLRRGAAKKKEPKGESNSSSPATPIKIPDCPVPASLLEELLRPPPAVSKEPLKNLNNCLQQLKQEMDSLQRQMEEHTITVHESLSSWAQVEAAPAEHAHPRGDTKLHNQNSVPRDGLGQ
For the molecule B4, the binding entry was “binds”.

B5: FYB (protein, UniProt O35601 1-819)
chain: MAKFNTGSNPTEEAATSSRPFKVAGQSSPSGIQSRKNLFDNQGNASPPAGPSSMPKFGTTKPPLAAKPTYEEKPEKEPKPPFLKPTGGSPRFGTQPNSVSRDPEVKVGFLKPVSPKPTSLTKEDSKPVVLRPPGNKLHNLNQESDLKTPGPKPGPAPPVPENELKPGFSKVAGAKSKFMPAAQDTDSKPRFPRHTFGQKPSLSTEDSQEENTSKNVPVQKGSPVQLGAKSKGAPFKPPKEDPEDKDHGAPSSPFPGVVLKPAASRGSPGLSKNFEEKKEDRKTDLAKNIFLNKLNQEEPARFPKAPSKLTAGTPWGQSQEKEGDKNSATPKQKALPPLSVLGPPPPKPNRPPNVDLTRFRKADSANSATKSQTPYSTTSLPPPPPTHPASQPPLPASHPAHPPVPSLPPRNIKPPLDLKHPINDENQDGVMHSDGTGNLEEEQESEGETYEDIDSSKERDKKREKEEKKRLELERKEQKEREKKEQELKKKFKLTGPIQVIHHAKACCDVKGGKNELSFKQGEDIEIIRITDNPEGKWLGRTARGSYGYIKTTAVEIDYDSLKRKKNSLNAVPPRLVEDDQDVYDDVAEQDAPNSHGQSGSGGMFPPPPTDDEIYDGIEEEDDDDGSVPQVDEKTNAWSWGILKMLKGKDDRKKSIREKPKVSESDNNEGSSLPSQHKQLDVGEEVYDDVDASDFPPPPAEMSQGMSVGRAKTEEKDPKKLKKQEKEEKDLRKKFKYDGEIRVLYSTKVASSLTSKKWGARDLQIKPGESLEVIQSTDDTKVLCRNEEGKYGYVLRSYLVDNDGEIYDDIADGCIYDND
For B5, the binding entry is recorded as “binds”.

B6: NUFIP2 (Nuclear Fragile X Mental Retardation Protein Interacting Protein 2) (protein, UniProt Q5F2E7 1-692)
chain: MEEKPGQPQPQHHHSHHHPHHHPQQQQQQQSHHHHHYYFYNHSHNHHHHHHHQQPHQYLQHGAEGSPKAQPKPLKHEQKHTLQQHQETPKKKTGYGEINGNAGEREISLKSLSSDEATNPISRVLNGNQQVVETSLKQTVKTSTFGKAGIKTKNFIQKNSMDKKNGKSYENKSGETQAVDKTDTIAIPNGVITSSSGYITNGYMSKGADNDGSGSESGYTTPKKRKARRNSAKGCENLNLVQDKIMQETSVPALKQGLETLKPDYSEQKGMRVDGSKPIWKYETGPGGTSRGKPAMGDVLRKSSDIKPGLSSKKFDDRPKGKHASAAASKEDSWTLFKPPPVFPVDNSSAKIVPKISYASKVKENLNKTVQNSSVSPSSSSSSSSTGETQTQSSSRLSQVPMSALKSVTSASFSNGPVLAGTDGSVYPSGGQPLLTTAANTLTPISTGTDSVLQDMSLASAAVEQIKSSLFIYPSNMQTVLLSAQVDLPSQTDQQNLGDIFQNQWGLSFINEPSAGPETVIGKSSDHKVMEVTFQGEYPATLVSQGAEIIPSGTEHPVFPKAYELEKRTSPQVLGHILKPGTTESGALSLDPSHIGDLQKADTSSQGALVFLSKDYEIENQNPLASPTNTLLGSAKEQRYQRGLERNDSWGSFDLRAAIVYHTKEMESIWNLQKQDPKRIITYNEAMDSPDQ
B6: the binding result is “binds”.
